Results from the supplement of paper PMC4604168 (melanoma cell lines).
Some of the results follow. Single values are uncertain, as repeats are few or missing.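 Imaging used 1,536-well plates; nuclei positive for cleaved PARP by antibody were divided by total DNA-stained nuclei to yield the apoptosis fraction. Doses for screening kept most cells viable, and cell lines differ markedly in resting and induced cleaved-PARP levels.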

Legend:
Assay in all cases: cleaved PARP positive nuclei fraction relative to DMSO control; melanoma cells; higher = more apoptosis
Settings in all cases: library dose: low library concentration; 72 h
[1] = tested on: MZ2-MEL
[2] = tested on: MeWo
[3] = tested on: RPMI7951
[4] = tested on: RVH-421
[5] = tested on: SkMel28
[6] = tested on: SkMel2
[7] = tested on: SkMel30
[8] = tested on: UACC62

Compound	cleaved PARP positive nuclei fraction [1] [%]	cleaved PARP positive nuclei fraction [2] [%]	cleaved PARP positive nuclei fraction [3] [%]	cleaved PARP positive nuclei fraction [4] [%]	cleaved PARP positive nuclei fraction [5] [%]	cleaved PARP positive nuclei fraction [6] [%]	cleaved PARP positive nuclei fraction [7] [%]	cleaved PARP positive nuclei fraction [8] [%]
NC1(c2ccc(-c3nc4ccn5c(=O)[nH]nc5c4cc3-c3ccccc3)cc2)CCC1 + Nc1ncn([C@H]2C[C@H](O)[C@@H](CO)O2)c(=O)n1 [decitabine] (first compound 0.4 µM, partner dose 0.1 µM)	160	142	112	306	108	171	68.7	259
CCCCCCCCc1ccc(CCC(N)(CO)CO)cc1 [fingolimod] + COc1ccc(Cl)c(Nc2nc3ccccc3nc2NS(=O)(=O)c2cccc(NC(=O)C(C)(C)N)c2)c1 [XL147] (first compound 2 µM, partner dose 0.8 µM)	55.3	145	141	120	55.6	67.1	120	399
C[C@@H](N)c1ccc(C(=O)Nc2ccnc3[nH]ccc23)cc1 + Cn1c(Nc2ccc(C(F)(F)F)cc2)nc2cc(Oc3ccnc(-c4ncc(C(F)(F)F)[nH]4)c3)ccc21 [CHIR265] (first compound 0.4 µM, partner dose 0.08 µM)	263	101	166	157	234	81.1	49.8	266
NC(=O)c1ccc(N(C(N)=O)c2c(F)cccc2F)nc1-c1ccc(F)cc1F + Cn1nnc2c(C(N)=O)ncn2c1=O [temozolomide] (first compound 0.4 µM, partner dose 2 µM)	89.7	84.5	130	198	43.6	93.7	90.9	120
C[C@]1(O)C[C@@H](c2nc(-c3ccc4ccc(-c5ccccc5)nc4c3)c3c(N)nccn32)C1 + C#Cc1cccc(Nc2ncnc3cc(OCCOC)c(OCCOC)cc23)c1 [erlotinib] (first compound 0.4 µM, partner dose 0.8 µM)	142	90.4	199	124	69.8	87.1	60.1	43.5
CC(=O)O[C@@]12CO[C@@H]1C[C@H](O)[C@@]1(C)C(=O)[C@H](O)C3=C(C)[C@@H](OC(=O)[C@H](O)[C@@H](NC(=O)OC(C)(C)C)c4ccccc4)C[C@@](O)([C@@H](OC(=O)c4ccccc4)[C@H]21)C3(C)C [Docetaxel] + Cc1cc(Nc2cc(N3CCN(C)CC3)nc(/C=C/c3ccccc3)n2)n[nH]1 [ENMD2076] (first compound 0.0001 µM, partner dose 0.04 µM)	726	339	170	175	188	592	104	380
C[C@]1(O)C[C@@H](c2nc(-c3ccc4ccc(-c5ccccc5)nc4c3)c3c(N)nccn32)C1 + C[C@]1(c2nc3c(C(N)=O)cccc3[nH]2)CCCN1 [Veliparib] (first compound 0.4 µM, partner dose 1.4 µM)	114	82.3	99.2	164	86.5	65.6	55.8	93.6
COc1ccc(C2=N[C@@H](c3ccc(Cl)cc3)[C@@H](c3ccc(Cl)cc3)N2C(=O)N2CCNC(=O)C2)c(OC(C)C)c1 [Nutlin-3] + Cn1nnc2c(C(N)=O)ncn2c1=O [temozolomide] (first compound 0.1 µM, partner dose 2 µM)	35.8	106	54.4	178	101	82.6	42.3	240
CCCCCCCCc1ccc(CCC(N)(CO)CO)cc1 [fingolimod] + Cc1nc(Nc2ncc(C(=O)Nc3c(C)cccc3Cl)s2)cc(N2CCN(CCO)CC2)n1 [dasatanib] (first compound 2 µM, partner dose 0.004 µM)	236	88.2	249	116	118	56.7	71.4	421
CC(=O)O[C@@]12CO[C@@H]1C[C@H](O)[C@@]1(C)C(=O)[C@H](O)C3=C(C)[C@@H](OC(=O)[C@H](O)[C@@H](NC(=O)OC(C)(C)C)c4ccccc4)C[C@@](O)([C@@H](OC(=O)c4ccccc4)[C@H]21)C3(C)C [Docetaxel] + C[C@@H](Oc1cc(-c2cnn(C3CCNCC3)c2)cnc1N)c1c(Cl)ccc(F)c1Cl [Crizotinib] (first compound 0.0001 µM, partner dose 0.2 µM)	701	518	219	173	777	566	164	117
CN(c1ncccc1CNc1nc(Nc2ccc3c(c2)CC(=O)N3)ncc1C(F)(F)F)S(C)(=O)=O + CN1CCN(c2ccc3nc(-c4c(N)c5c(F)cccc5[nH]c4=O)[nH]c3c2)CC1 [Dovitinib] (first compound 0.08 µM, partner dose 0.1 µM)	51.9	35.3	40.1	107	73.3	68.2	286	39.7
Cn1sc(=O)n(Cc2ccccc2)c1=O + CCCS(=O)(=O)Nc1ccc(F)c(C(=O)c2c[nH]c3ncc(Cl)cc23)c1F [PLX4720] (first compound 0.4 µM, partner dose 0.08 µM)	20.3	195	46	84.3	74.9	135	146	113
